Literature values as cited in publication PMC12670427, “FDA Drug Repurposing Uncovers Modulators of Dopamine D2 Receptor Localization via Disruption of the NCS‑1 Interaction” (Journal of Medicinal Chemistry, 2025).

Conditions: known drug property listed in Supplementary Table 1, no reference given; cited from earlier work

CC(C)c1c(C(=O)Nc2ccccc2)c(-c2ccccc2)c(-c2ccc(F)cc2)n1CC[C@@H](O)C[C@@H](O)CC(=O)O [Atorvastatin]
Crossing the blood-brain barrier: Yes
